Drawing on PMC7819943, “Rice protein-binding microarrays: a tool to detect cis-acting elements near promoter regions in rice”, this text covers binding signal for 42 sequences.

The chains behind the UniProt entries cited, without tags or fusion partners.
UniProt Q0JBA9, entry or part of it: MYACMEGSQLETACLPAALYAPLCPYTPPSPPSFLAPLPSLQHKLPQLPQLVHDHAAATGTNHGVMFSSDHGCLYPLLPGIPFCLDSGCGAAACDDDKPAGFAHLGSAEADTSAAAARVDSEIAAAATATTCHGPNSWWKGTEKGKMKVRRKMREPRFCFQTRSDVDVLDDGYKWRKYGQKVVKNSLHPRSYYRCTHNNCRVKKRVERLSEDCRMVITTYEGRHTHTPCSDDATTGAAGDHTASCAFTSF

The list shows a part of the results.

This experiment concerns the target OsWRKY34 (Oryza sativa, UniProt Q0JBA9 1-250). Kind of experiment: protein-binding microarray (RPBM); PBS, 2% BSA, 51.3 ng/ul salmon testes DNA, 50 uM zinc acetate, 200 nM TF, 25 C, 1 h; high values mean tight binding. Conditions: protein: recombinant; tags: N-terminal polyhistidine and DsRed monomer fusion (pET32a); label: CyDye5-dUTP incorporated in the synthesized complementary strand; 3' TTTTT single-stranded linker to array surface; dsDNA, one strand shown. In outline:
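Binding signal is defined as the fluorescence intensity of each feature in arbitrary units, read on an Axon 4000B scanner. Transcription factors with N-terminal polyhistidine and DsRed fusions came from E. coli BL21-CodonPlus and were purified on Ni–NTA. They were incubated at 200 nM for 1 h at 25 °C on a custom Agilent array that had been made double-stranded with Cy5-dUTP, with 50 µM zinc acetate present, and the array was washed.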
For the sequence “CACTTACCATGATAATTTGAACAGTTCACACGCGCCGAGACGGAGTCACCTAGTGCAG”, the binding signal is 8190 fluorescence intensity (a.u.).
Under “CTCAGCTTACTTGATTGCCTAATGCGAACCTTGGATTTTTCGGAGTCACCTAGTGCAG” stands 10600 fluorescence intensity (a.u.); under “GTTGGGGTTCGTCGTCTTGGTCTTGGGTCTTCTTCGTCCCCGGAGTCACCTAGTGCAG”, 11600 fluorescence intensity (a.u.); under “AAGGTGTGTTTGTAAGGAATATTTTCTTTTGGGGACCATCCGGAGTCACCTAGTGCAG”, 8150 fluorescence intensity (a.u.).
Under “CGCCACGCCCTCATCTGCCCGGCCGCCTCACTGAAGAAAACGGAGTCACCTAGTGCAG” stands 8140 fluorescence intensity (a.u.); under “GGCTTCTGTTCCATGGGTGCCCCGTGCCCATGCCCGGCCACGGAGTCACCTAGTGCAG”, 8530 fluorescence intensity (a.u.).
“TCTTAGCACACGTTTTGGTCCTGCGTTAAGCCCGCCAAATCGGAGTCACCTAGTGCAG”: the binding signal was 9680 fluorescence intensity (a.u.).
The value for “TACGACCACTATATAGGCTATCCATATTGCAATGTATTTTCGGAGTCACCTAGTGCAG” was 8340 fluorescence intensity (a.u.); that for “CAAGTACTCCGTACCCCATATTGGGGCATTTAACTATTTGCGGAGTCACCTAGTGCAG” was 8290 fluorescence intensity (a.u.).
Under “CTCTAGTCAACGCGCCCACGTGGACCAGTTGTTCATCGAGCGGAGTCACCTAGTGCAG” stands 8090 fluorescence intensity (a.u.); under “TCCCTGAGCTTTTAGTTGTATTGTAGCCGTCCCCGTATAACGGAGTCACCTAGTGCAG”, 8500 fluorescence intensity (a.u.); under “GACTCCGACCCATCCCGTCGTCCTCGTCGTCGTCCTCCTCCGGAGTCACCTAGTGCAG”, 9540 fluorescence intensity (a.u.).
For the sequence “AATCTCTAGTCGACGTAGAAGAATTCTTCTATACTTTCTGCGGAGTCACCTAGTGCAG”, the binding signal was 9780 fluorescence intensity (a.u.).
The value for “ATCGTCCTCCTTTCCGTAGCTGGCAACATCTCCGCCTCTCCGGAGTCACCTAGTGCAG” was 8230 fluorescence intensity (a.u.); that for “AAACACAAACGTTCACACAACATGCGCACACTATACCTGTCGGAGTCACCTAGTGCAG” was 8120 fluorescence intensity (a.u.).
The value for “ATCTAGCTTCATCTTATGACATCAACAACTTTTCTGATTGCGGAGTCACCTAGTGCAG” was 10000 fluorescence intensity (a.u.).
For the sequence “TACTCTGGCCACTTCCTTCCTTCTCCGCTGGATCGGATTCCGGAGTCACCTAGTGCAG”, the binding signal was 8040 fluorescence intensity (a.u.).
On to “AGCGGCTCACCGAGCTGACCCATCTCAACATCTCCCCACCCGGAGTCACCTAGTGCAG”, for which the binding signal was 8020 fluorescence intensity (a.u.).
For the sequence “GAGAGTATTCTTTTTCGCCGTAGATATTACTACCGTTTCACGGAGTCACCTAGTGCAG”, the binding signal is 9650 fluorescence intensity (a.u.).
Under “ATGTGGATGTAAAGCTGGTCGGTACAGTTCAGTTCAGACTCGGAGTCACCTAGTGCAG” stands 8440 fluorescence intensity (a.u.); under “TGGCACTCTACCACCAAAATTTGTTGTAAACATGGTATCTCGGAGTCACCTAGTGCAG”, 9900 fluorescence intensity (a.u.).
The value for “ACCAGTAATATCTGGTCTCACTTGTCATACACACTTTTGCCGGAGTCACCTAGTGCAG” was 8450 fluorescence intensity (a.u.); that for “AACTTTGGTCAACGGTGGGGATTGGGACTAGACTCAGGGACGGAGTCACCTAGTGCAG” was 11300 fluorescence intensity (a.u.); that for “GACCCCGCGGATCCGGTCGCTGTCAGCCTCCTCCGCAATCCGGAGTCACCTAGTGCAG” was 9900 fluorescence intensity (a.u.).
As to “TCATGTGGGGCTTTCATGCTTTAATAACGTGTGATATTGACGGAGTCACCTAGTGCAG”, the binding signal was 8360 fluorescence intensity (a.u.).
Regarding “GGGTACAGGGGTGGGGACTTGGGTGTGTTGTGGTGGTTACCGGAGTCACCTAGTGCAG”, the binding signal is 12400 fluorescence intensity (a.u.).
For “CCAGCGTATCTTCTACTACTACTACGTATCTGCTGCATTCCGGAGTCACCTAGTGCAG”, the binding signal was 9040 fluorescence intensity (a.u.).
The value for “TCGTAATGACTCTGCTTGCTAGTTCACAGTTATCACTTGACGGAGTCACCTAGTGCAG” was 8390 fluorescence intensity (a.u.).
The value for “TCTCACAATCTCTTTGTTTTCTTGTAATTCCAACCACTTTCGGAGTCACCTAGTGCAG” was 13300 fluorescence intensity (a.u.); that for “ACCCGTTCTTTCTCACGCTTGTGGCGTGCATTGTCAATCACGGAGTCACCTAGTGCAG” was 8380 fluorescence intensity (a.u.); that for “CATCAACAGCCTCCAGTCTCTGCGCTCCTACTCTGCCGGACGGAGTCACCTAGTGCAG” was 8950 fluorescence intensity (a.u.).
Under “CCACACGCCCACCCCGCGCCGCCGCCTCGCCGTCGCTGTCCGGAGTCACCTAGTGCAG” stands 10200 fluorescence intensity (a.u.).
For “CCATATATAAACCGCGCCAACCTTGCCGTCGTCCTCGACGCGGAGTCACCTAGTGCAG”, the binding signal was 8330 fluorescence intensity (a.u.).
Under “CAACAGCTGCAGCTGCTACGATTGTTCTCTATATTTCATTCGGAGTCACCTAGTGCAG” stands 8160 fluorescence intensity (a.u.).
“AATACTCTCCCAAGTTATTTTGTTCTTGTTCTCTGCATTCCGGAGTCACCTAGTGCAG”: the binding signal was 12200 fluorescence intensity (a.u.).
The value for “GGAAACCCTCGCGTCTTCTGTTCCGCCTCAGCGTCTCATCCGGAGTCACCTAGTGCAG” was 9560 fluorescence intensity (a.u.); that for “GATCCATCGCCTGTGTCCCCTCCGCCACTCCATCGCGCGCCGGAGTCACCTAGTGCAG” was 11200 fluorescence intensity (a.u.).
Under “CACTAGCGGGCGCGGGGCGGGGTTAGCAGTGCACGTCACGCGGAGTCACCTAGTGCAG” stands 9460 fluorescence intensity (a.u.); under “GGTCAGGTGGGTTACTCGTCGCCTTCAGCCCCTGGCATGTCGGAGTCACCTAGTGCAG”, 8170 fluorescence intensity (a.u.).
The value for “ACCCTTGCAACGCACTTCTCACTCGTAGCTTTAGTTTTCCCGGAGTCACCTAGTGCAG” was 9980 fluorescence intensity (a.u.); that for “TCCTTGCTCGTCGTTTTCTCCTAACTAATCTAATCTCCCTCGGAGTCACCTAGTGCAG” was 8400 fluorescence intensity (a.u.).
“CGTCGTTTCGTTTAGCATATGTTGTCACGGTACATGTATGCGGAGTCACCTAGTGCAG”: the binding signal is 10500 fluorescence intensity (a.u.).
